Results are given in words; binding and its absence hold for the method and conditions named. Binding seen in cells or lysates may run through a third protein. Binding calls can cover weak binding; strength is not graded here.
Biological target: GST-Ataxin-1[82Q] with S776A mutation (human)
Experiment: pull-down; GST co-affinity purification (co-AP): lysates of HEK293T cells transfected with the GST-Ataxin-1 construct and Ataxin-2 run through glutathione conjugated beads; blots stained with anti-GST, anti-Myc or for dAtx2

B1: Drosophila Ataxin-2 (dAtx2) (protein, UniProt Q8SWR8 1-1084)
chain: MNNNSKRKTRPTGGGASGGISRYNSNDNSLRPTNNKAGAGGGNGGAAVRPSAQGVYNNTFFMHSATALVGSVVEVRLRSGNIYEGVFRTFSGNFDIALELPACIKSKNLPEEGKVPKHIIFPADTVVTIVAKDFDSQYATAGAFQTDGAISDKCNGARPDEKELEPWDSGANGDIDIELDSAANGWDPNEMFRKNENTFGVTSTFDDSLASYTVPLDKGDSLEFKEAEAKAEKLAAEIENNPTCRDRLDLENGDEEALFAAVERPSTEQDQRGDRGDRERNDRDREREERDRDRDRDRGNKPRGAGDFQLRETMSSDRYITKQTRSITGPQLSHVGMSSQGSGRDRDTRGDGSMMMQSGGGSGQGGSTQSTAALMLAGGLKGVGPAPSANASADSSSKYSGGSMVKRKTVPQGGKVMRNNVPTGGSNVSVSQGGNGNSVGQNKGGYQPSMGMPSQYSYQGNSQIMHGSSQYRNQSHMGGANKLNGDSNANTNKPLPQRQMRQYQGSQSNSSLNYGGEPQSLGKPVHGSHGGHPGQNSNSPPLQTAGPQQQQQQQQQQQQQQQQQQPPQQQQHQNIQPQGQNTQPARQVRTRDNQMQELRQFGQDFQLAPSNTSPPQQQQQQQQQQQQHQVQQQQQRALQQSASPPQQQQQQQQQQQHVVLHQVPQTHLHQAALSQPHYVPQQQPQQAPLPQQQHVPHHMQQKAQQQQLVETQHQHVQKQHQSQPQVQQPPPQLLQDPSQQPLPIYHTMPPPQTSPVVVTSPVLLEQPPPQPMPVVQQQQTQQLATPKPEVSPAPPSSNTTTPTGIASTPTAGVIASAGSEKTTPAAPTPTSNSATVPTGTAATAGGATGTTPVVKKHVLNPSAKPFTPRGPSTPNPSRPHTPQTPVPMTNIYTTTGGHVPPAANQPIYVMQPQHPFPPQTHPQAGQPPRLRRSNYPPMAASQMHVSASAATGQPLITAGPIPQFIQYGHAPHQQQFQSHTYAPMQMRVYPDQPQQLQFMTQTPQSTTPSPGQPHQQFHPPPQPSPAGGGPQPAFTPPTQAATYQLMCVHPQSLLANHYFPPPTPQHPQQNQQQYQIVMQQHQPQ
- binding: binds
